Molecules are shown by their SMILES.

Data on one molecule can be found in publication PMC10630959, “Dissimilar Effect of P-Glycoprotein and Breast Cancer Resistance Protein Inhibition on the Distribution of Erlotinib to the Retina and Brain in Humans and Mice” (Molecular Pharmaceutics, 2023).

This test concerns OCTs, OCTNs and OATPs at the mouse BRB. Description: [^3H]erlotinib in situ carotid perfusion, retina transport with SLC transporter inhibitors. The conditions noted are these: 100 μM fexofenadine, 5 mM TEA, 100 μM estrone-3-sulfate, 0.5 mM ergothioneine, 5 mM L-carnitine. Type of test: in vivo. Here is the method: Transport of [^3H]erlotinib at the luminal BRB and BBB was measured by in situ carotid perfusion.[11],[25] With this method, the vascular composition of the brain and the eye is completely substituted by an artificial fluid, whose constitution can be modified. The perfusion fluid for the in situ carotid perfusion consisted of Krebs carbonate-buffered physiological saline with 128 mM NaCl, 24 mM NaHCO3, 4.2 mM KCl, 2.4 mM NaH2PO4, 1.5 mM CaCl2, 0.9 mM MgSO4, and 9 mM D-glucose, warmed to 37 °C and gassed with 95% O2/5% CO2 to adjust the pH to 7.40. The pH of the perfusion fluid was checked and adjusted with a digital pH meter (±0.05 pH units) immediately before perfusion. Tissue accumulation of [^3H]erlotinib was measured under trans-influx zero to determine the kinetic conditions required to measure transport solely across the membrane, separating the sucrose (vascular) from the nonsucrose (tissue parenchyma) space. […]
Mice were anesthetized with ketamine and xylazine (140 and 8 mg/kg, intraperitoneal), and a catheter was inserted into the right carotid artery after ligation of the appropriate vessels. […] Dual-label counting was carried out in a Tri-Carb 2810TR instrument (PerkinElmer) to measure radioactivity (disintegrations per minute, dpm). […] Therefore, radioactivity in the whole eye was assumed to represent only the posterior segment of the eye, which comprises the retina. […]

In the case of `CC(C)(C(=O)O)c1ccc(C(O)CCCN2CCC(C(O)(c3ccccc3)c3ccccc3)CC2)cc1` (stereo not shown) [fexofenadine], the “significant changes in retina [^3H]erlotinib transport on co-perfusion” value was “None”.
